From PMC10940316
These are yes or no findings as the source states them, for the method shown. Binding seen in cells or lysates may run through a third protein.

Sequences of proteins named here, by UniProt entry; tags and fusion partners are left off.
UniProt O54857: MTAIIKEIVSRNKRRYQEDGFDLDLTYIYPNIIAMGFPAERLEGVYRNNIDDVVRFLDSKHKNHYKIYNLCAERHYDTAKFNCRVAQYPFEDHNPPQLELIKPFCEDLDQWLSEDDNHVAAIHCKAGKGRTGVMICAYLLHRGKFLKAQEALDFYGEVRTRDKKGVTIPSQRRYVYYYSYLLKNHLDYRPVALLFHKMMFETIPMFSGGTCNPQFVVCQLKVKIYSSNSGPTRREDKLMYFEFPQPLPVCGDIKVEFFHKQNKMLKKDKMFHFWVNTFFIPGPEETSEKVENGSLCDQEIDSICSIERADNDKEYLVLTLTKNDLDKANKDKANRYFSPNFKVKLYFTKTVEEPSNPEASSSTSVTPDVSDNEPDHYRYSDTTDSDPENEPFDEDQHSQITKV

Biological target: T1, peripheral myelin protein of 22 kDa (PMP22), endogenous in rat sciatic nerve (rat (endogenous in sciatic nerve)) (UniProt P25094)
T1 sequence: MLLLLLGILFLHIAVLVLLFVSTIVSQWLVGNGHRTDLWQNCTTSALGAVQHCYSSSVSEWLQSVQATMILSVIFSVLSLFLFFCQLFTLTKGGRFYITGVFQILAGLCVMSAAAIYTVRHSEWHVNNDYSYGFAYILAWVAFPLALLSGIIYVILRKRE
Experiment: co-IP; immunoprecipitation of endogenous PMP22 from rat sciatic nerve (P18) with anti-PMP22 antibody-coupled magnetic beads; lysis in 1% DDM, diluted to 0.15%; 1 h at 4 °C, washes with 0.025% DDM; control beads with unspecific antibodies or empty; Western blot

- binding: no binding
Substance: phosphatase and tensin homolog (PTEN), endogenous in rat sciatic nerve (from UniProt O54857 1-403)
